Results from paper PMC7683537.
No constants are given. Whether binding was seen depends on the method and setting. In cells and extracts the contact can be indirect. A yes stands for co-enrichment or nearness to the bait. Other partners may have been found.

Chains of the proteins cited; added tags and fusions are not shown.
UniProt P28033: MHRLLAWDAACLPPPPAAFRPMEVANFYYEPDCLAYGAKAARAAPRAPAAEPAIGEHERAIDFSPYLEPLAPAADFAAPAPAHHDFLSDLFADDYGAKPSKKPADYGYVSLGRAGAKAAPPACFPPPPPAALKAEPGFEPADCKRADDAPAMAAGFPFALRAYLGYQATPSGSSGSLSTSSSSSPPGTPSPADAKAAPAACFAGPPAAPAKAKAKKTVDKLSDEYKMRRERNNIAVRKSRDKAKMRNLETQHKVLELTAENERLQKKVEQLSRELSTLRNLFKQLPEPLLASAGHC
UniProt Q9CWW7: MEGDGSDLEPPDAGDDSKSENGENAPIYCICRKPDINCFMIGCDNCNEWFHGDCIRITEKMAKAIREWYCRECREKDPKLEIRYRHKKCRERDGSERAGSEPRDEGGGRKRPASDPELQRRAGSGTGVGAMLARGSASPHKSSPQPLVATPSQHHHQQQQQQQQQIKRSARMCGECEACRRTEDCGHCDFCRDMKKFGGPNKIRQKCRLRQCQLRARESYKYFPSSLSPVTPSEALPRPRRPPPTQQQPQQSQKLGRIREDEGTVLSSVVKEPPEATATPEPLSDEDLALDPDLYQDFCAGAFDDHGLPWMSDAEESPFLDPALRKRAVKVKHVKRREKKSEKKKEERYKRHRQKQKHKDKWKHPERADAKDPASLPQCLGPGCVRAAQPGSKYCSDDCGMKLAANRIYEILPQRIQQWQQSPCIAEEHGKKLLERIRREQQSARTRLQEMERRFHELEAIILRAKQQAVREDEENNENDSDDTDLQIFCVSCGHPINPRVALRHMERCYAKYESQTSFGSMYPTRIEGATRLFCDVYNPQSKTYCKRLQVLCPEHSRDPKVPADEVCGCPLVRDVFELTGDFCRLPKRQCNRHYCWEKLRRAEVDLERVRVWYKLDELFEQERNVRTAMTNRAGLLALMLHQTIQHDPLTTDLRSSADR
UniProt Q9CQJ4: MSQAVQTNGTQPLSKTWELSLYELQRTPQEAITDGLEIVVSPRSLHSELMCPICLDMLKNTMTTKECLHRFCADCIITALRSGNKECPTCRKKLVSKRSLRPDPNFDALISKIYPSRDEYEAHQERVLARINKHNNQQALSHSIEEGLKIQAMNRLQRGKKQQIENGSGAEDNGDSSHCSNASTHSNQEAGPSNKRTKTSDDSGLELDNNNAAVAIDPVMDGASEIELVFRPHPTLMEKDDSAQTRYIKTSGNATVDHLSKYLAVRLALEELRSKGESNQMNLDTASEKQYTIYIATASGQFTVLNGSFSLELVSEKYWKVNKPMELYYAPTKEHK
UniProt Q91X20: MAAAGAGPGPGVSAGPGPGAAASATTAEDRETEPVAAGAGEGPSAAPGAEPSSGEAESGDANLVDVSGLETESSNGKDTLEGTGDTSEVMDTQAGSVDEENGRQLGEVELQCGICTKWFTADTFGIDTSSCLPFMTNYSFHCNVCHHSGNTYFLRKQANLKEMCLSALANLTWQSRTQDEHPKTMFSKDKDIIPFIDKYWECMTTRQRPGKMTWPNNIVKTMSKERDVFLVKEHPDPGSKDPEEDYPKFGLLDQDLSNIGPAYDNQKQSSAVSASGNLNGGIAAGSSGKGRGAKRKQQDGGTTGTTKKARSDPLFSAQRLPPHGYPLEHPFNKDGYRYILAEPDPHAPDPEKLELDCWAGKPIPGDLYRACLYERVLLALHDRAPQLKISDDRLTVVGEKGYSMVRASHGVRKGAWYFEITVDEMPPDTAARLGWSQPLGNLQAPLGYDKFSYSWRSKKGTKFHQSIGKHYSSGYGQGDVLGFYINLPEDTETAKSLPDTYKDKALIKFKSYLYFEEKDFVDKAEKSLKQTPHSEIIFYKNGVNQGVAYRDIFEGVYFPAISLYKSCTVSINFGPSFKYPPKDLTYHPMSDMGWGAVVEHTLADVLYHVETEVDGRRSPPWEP

What follows are substances tested against CCAAT/enhancer binding protein β (C/EBPβ) (mouse (endogenous in BMDMs)) (UniProt P28033) (assay: affinity purification with mass spectrometry; IP with anti-C/EBPβ antibody from BMDM lysate (IP lysis buffer, Pierce), protein A/G magnetic beads, SDS-PAGE, silver staining, LC-MS/MS).

binding, binds:
CXXC1 (from UniProt Q9CWW7 1-660)
RNF2 (from UniProt Q9CQJ4 1-336)
absent, small, or homeotic 2-like protein (ASH2L) (from UniProt Q91X20 1-623)
